The record followed here is publication PMC5485742.

These are yes or no findings as the source states them, for the method shown. Binding can be weak; no strength is given. For part of these data: In cells and extracts the contact can be indirect.

The target in assay [1] is CHIQ1, yeast two-hybrid fusion (Arabidopsis thaliana) (UniProt O22146). As to the kind of experiment: two-hybrid; CHIQ1 against potential interactors from the co-IP/MS (CHIQ1 family members, TFs) in yeast, pDEST22 and pDEST32 vectors; quantified in Fig. 5b.
The target is the same in assay [2]. Put plainly: two-hybrid; all-by-all physical interaction analysis among nine CHIQ proteins in yeast (Table S9).

As for “CHIQUITA1-LIKE 5 (CHIQL5), yeast two-hybrid fusion (from UniProt Q9MAG4)”, the binding entry in assay [1] is on record as “binds”.

As to “CHIQUITA1-LIKE 6 (CHIQL6), yeast two-hybrid fusion (from UniProt Q9LP57)”, the binding result in assay [1] was “binds”. As to “CHIQUITA1-LIKE 7 (CHIQL7), yeast two-hybrid fusion (from UniProt Q6NPZ8)”, the binding result in assay [2] is on record as “binds”.
